The other results are listed elsewhere or left out. Single values are uncertain, as repeats are few or missing.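 Imaging used 1,536-well plates; nuclei positive for cleaved PARP by antibody were divided by total DNA-stained nuclei to yield the apoptosis fraction. Doses for screening kept most cells viable, and cell lines differ markedly in resting and induced cleaved-PARP levels.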
What follows are molecules tested on MZ2-MEL (assay: cleaved PARP positive nuclei fraction relative to DMSO control; melanoma cells; higher = more apoptosis). Settings: library dose: low library concentration; 72 h.

Structure (SMILES)	cleaved PARP positive nuclei fraction [%]
O=C(O)[C@@H]1[O][Sb](=[O])([O][Sb]2(=[O])[O][C@H]([C@H](O)CO)[C@H](O)[C@H](C(=O)O)[O]2)[O][C@H]([C@H](O)CO)[C@@H]1O (some centres undefined) [stibogluconate] + OCCn1cc(-c2cnc3nnn(Cc4ccc5ncccc5c4)c3n2)cn1 [PF04217903] (first compound 2 µM, partner dose 1 µM)	60.5
C[C@@H](Oc1cc(-c2cnn(C3CCNCC3)c2)cnc1N)c1c(Cl)ccc(F)c1Cl [Crizotinib] + Oc1cc(-c2nc(-c3ccccc3)[nH]c2-c2ccncc2)ccc1Cl [L779450] (first compound 0.2 µM, partner dose 0.2 µM)	203
C[C@@H](Oc1cc(-c2cnn(C3CCNCC3)c2)cnc1N)c1c(Cl)ccc(F)c1Cl [Crizotinib] + CCCCCCCCCCCC1=C(O)C(=O)C=C(O)C1=O [Embelin] (first compound 0.2 µM, partner dose 1.2 µM)	40
Nc1ncn([C@H]2C[C@H](O)[C@@H](CO)O2)c(=O)n1 [decitabine] + O=C(Nc1ccccc1)c1cc([N+](=O)[O-])ccc1Cl [GW9662] (first compound 0.1 µM, partner dose 2 µM)	87.1
C[C@@H](Oc1cc(-c2cnn(C3CCNCC3)c2)cnc1N)c1c(Cl)ccc(F)c1Cl [Crizotinib] + O=c1cc(-c2cccc3c2Sc2ccccc2S3)oc(N2CCOCC2)c1 [KU55933] (first compound 0.2 µM, partner dose 1 µM)	173
CS(=O)(=O)CCNCc1ccc(-c2ccc3ncnc(Nc4ccc(OCc5cccc(F)c5)c(Cl)c4)c3c2)o1 [lapatinib] + OCCn1cc(-c2cnc3nnn(Cc4ccc5ncccc5c4)c3n2)cn1 [PF04217903] (first compound 0.8 µM, partner dose 1 µM)	46.9
Cc1cc(Nc2cc(N3CCN(C)CC3)nc(/C=C/c3ccccc3)n2)n[nH]1 + N#Cc1c(O)c2c(-c3ccc(-c4ccccc4O)cc3)csc2[nH]c1=O [A769662] (first compound 0.04 µM, partner dose 2 µM)	136
CCCS(=O)(=O)Nc1ccc(F)c(C(=O)c2c[nH]c3ncc(Cl)cc23)c1F + COc1cc2ncnc(Nc3ccc(Oc4ccccc4)cc3)c2cc1OC [SrcI1] (first compound 0.08 µM, partner dose 2 µM)	212
Nc1nc(F)nc2c1ncn2[C@@H]1O[C@H](CO)[C@@H](O)[C@@H]1O [fludarabine] + CO[C@@H]1[C@H](N(C)C(=O)c2ccccc2)C[C@H]2O[C@]1(C)n1c3ccccc3c3c4c(c5c6ccccc6n2c5c31)C(=O)NC4 [Midostaurin] (first compound 0.2 µM, partner dose 0.08 µM)	64.7
Nc1ncn([C@H]2C[C@H](O)[C@@H](CO)O2)c(=O)n1 [decitabine] + O=C(O)c1ccc(-c2c[nH]c3ncc(-c4ccccc4)cc23)cc1C1CCCC1 [GSK650394] (first compound 0.1 µM, partner dose 0.16 µM)	80.3
CN1CCN(c2ccc3nc(-c4c(N)c5c(F)cccc5[nH]c4=O)[nH]c3c2)CC1 [Dovitinib] + Oc1cc(-c2nc(-c3ccccc3)[nH]c2-c2ccncc2)ccc1Cl [L779450] (first compound 0.1 µM, partner dose 0.2 µM)	131
CS(=O)(=O)CCNCc1ccc(-c2ccc3ncnc(Nc4ccc(OCc5cccc(F)c5)c(Cl)c4)c3c2)o1 [lapatinib] + O=S(=O)(c1ccccc1)N(CC(F)(F)F)c1ccc(C(O)(C(F)(F)F)C(F)(F)F)cc1 [T0901317] (first compound 0.8 µM, partner dose 1.4 µM)	127
CNC(=O)c1cc(Oc2ccc(NC(=O)Nc3ccc(Cl)c(C(F)(F)F)c3)cc2)ccn1 [sorafenib] + O=C(O)c1ccc(-c2c[nH]c3ncc(-c4ccccc4)cc23)cc1C1CCCC1 [GSK650394] (first compound 0.4 µM, partner dose 0.16 µM)	20.8
CC(C)C[C@H](NC(=O)[C@H](Cc1ccccc1)NC(=O)c1cnccn1)B(O)O [Bortezomib] + NC(=O)Nc1cc(-c2cccc(F)c2)sc1C(=O)N[C@H]1CCCNC1 [AZD7762] (first compound 0.001 µM, partner dose 0.02 µM)	91.1

Copied from the list.
CC(C)C[C@H](NC(=O)[C@H](Cc1ccccc1)NC(=O)c1cnccn1)B(O)O [Bortezomib] + NC(=O)Nc1cc(-c2cccc(F)c2)sc1C(=O)N[C@H]1CCCNC1 [AZD7762] (first compound 0.001 µM, partner dose 0.02 µM) – cleaved PARP positive nuclei fraction [%]: 91.1
Nc1ncn([C@H]2C[C@H](O)[C@@H](CO)O2)c(=O)n1 [decitabine] + O=C(O)c1ccc(-c2c[nH]c3ncc(-c4ccccc4)cc23)cc1C1CCCC1 [GSK650394] (first compound 0.1 µM, partner dose 0.16 µM) – cleaved PARP positive nuclei fraction [%]: 80.3
